No constants are given. Whether binding was seen depends on the method and setting.
Target: recombinant His-HSC70 (human) (UniProt P11142)
Assay: SEC; recombinant proteins at different molar ratios, 20 min on ice in BC50 (20 mM Tris-HCl pH 7.5, 50 mM KCl, 0.2 mM EDTA, 10% glycerol) with 0.05% NP-40; Superdex 200 10/300 GL; fractions by western blot; both purified

By UniProt entry, the sequences of proteins in these tests, tags left out.
UniProt P11142: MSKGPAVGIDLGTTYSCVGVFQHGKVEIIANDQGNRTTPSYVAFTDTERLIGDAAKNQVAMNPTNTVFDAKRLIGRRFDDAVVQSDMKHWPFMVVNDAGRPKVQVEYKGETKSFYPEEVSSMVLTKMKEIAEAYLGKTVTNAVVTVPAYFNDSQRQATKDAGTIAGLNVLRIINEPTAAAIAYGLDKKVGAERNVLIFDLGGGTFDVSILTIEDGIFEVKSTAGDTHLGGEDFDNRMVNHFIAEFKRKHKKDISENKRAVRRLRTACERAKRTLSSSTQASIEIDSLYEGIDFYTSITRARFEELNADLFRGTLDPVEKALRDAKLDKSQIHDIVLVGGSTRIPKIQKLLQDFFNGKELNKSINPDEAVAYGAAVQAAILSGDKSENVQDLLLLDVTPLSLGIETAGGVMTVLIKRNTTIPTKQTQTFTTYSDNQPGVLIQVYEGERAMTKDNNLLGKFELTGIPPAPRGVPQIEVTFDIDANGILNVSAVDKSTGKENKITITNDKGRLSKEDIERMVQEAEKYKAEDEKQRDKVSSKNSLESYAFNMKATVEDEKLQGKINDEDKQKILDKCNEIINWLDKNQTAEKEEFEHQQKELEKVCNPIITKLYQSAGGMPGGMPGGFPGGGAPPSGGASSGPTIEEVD

binding: no binding
Substance: recombinant His-tNASP (from UniProt P49321-1 1-788)
